Data taken from paper PMC11533527, “A yeast two-hybrid system to obtain triple-helical ligands from combinatorial random peptide libraries” (The Journal of Biological Chemistry, 2024).
Results are given in words; binding and its absence hold for the method and conditions named. Some results given as binding are weak or reduced against the parent protein; the word gives no strength. Sequences can lack the tags named with a protein.

Sequences of proteins named here, by UniProt entry; tags and fusion partners are left off. A change or cut given only in a name is not applied to a line headed by its entry.
UniProt P02453: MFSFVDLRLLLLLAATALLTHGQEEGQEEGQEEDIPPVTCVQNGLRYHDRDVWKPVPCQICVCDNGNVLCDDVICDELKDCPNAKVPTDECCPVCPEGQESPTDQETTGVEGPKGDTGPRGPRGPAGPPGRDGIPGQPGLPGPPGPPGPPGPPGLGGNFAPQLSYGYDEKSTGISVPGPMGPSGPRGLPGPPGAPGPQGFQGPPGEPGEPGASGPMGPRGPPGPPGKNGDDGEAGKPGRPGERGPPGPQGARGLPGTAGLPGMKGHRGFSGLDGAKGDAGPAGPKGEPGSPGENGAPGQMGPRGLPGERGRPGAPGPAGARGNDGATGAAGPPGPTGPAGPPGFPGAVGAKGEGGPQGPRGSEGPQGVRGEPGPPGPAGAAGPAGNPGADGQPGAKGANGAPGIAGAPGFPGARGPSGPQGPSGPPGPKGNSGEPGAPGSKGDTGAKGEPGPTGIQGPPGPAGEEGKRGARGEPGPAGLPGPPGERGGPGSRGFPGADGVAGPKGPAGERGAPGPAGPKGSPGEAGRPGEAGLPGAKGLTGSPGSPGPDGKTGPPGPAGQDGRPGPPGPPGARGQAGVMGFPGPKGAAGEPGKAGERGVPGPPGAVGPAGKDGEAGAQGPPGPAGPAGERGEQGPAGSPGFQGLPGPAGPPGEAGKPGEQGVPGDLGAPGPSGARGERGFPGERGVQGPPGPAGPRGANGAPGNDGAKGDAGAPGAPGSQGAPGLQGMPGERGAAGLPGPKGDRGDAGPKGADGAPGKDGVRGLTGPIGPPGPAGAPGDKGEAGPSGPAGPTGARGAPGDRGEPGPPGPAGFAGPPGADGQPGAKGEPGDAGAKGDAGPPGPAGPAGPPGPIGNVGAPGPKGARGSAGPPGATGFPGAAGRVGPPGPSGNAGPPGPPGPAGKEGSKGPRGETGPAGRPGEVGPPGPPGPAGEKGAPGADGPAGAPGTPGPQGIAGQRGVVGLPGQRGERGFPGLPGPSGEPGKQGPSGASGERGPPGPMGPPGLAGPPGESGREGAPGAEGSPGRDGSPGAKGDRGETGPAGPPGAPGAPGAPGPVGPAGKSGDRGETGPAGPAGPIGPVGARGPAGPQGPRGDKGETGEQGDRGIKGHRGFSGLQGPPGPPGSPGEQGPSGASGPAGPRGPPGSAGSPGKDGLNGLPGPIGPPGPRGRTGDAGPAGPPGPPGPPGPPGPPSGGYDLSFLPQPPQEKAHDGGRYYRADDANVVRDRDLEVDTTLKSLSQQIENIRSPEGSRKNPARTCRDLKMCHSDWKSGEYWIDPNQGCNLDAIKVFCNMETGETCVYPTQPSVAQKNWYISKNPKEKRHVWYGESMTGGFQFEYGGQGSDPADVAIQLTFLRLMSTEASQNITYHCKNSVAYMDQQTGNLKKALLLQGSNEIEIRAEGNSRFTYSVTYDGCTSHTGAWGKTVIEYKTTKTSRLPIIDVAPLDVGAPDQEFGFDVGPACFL

Target: type I collagen (collagen I, Koken) (UniProt P02453)
Assay: ELISA; competitive ELISA: wells coated with 10 μg/ml collagen I; annealed peptides preincubated with 3 nM GST-PEDF for 10 min at room temperature in 20 mM HEPES-Na pH 7.4, 100 mM NaCl, 0.005% Tween 20; 90 min at 4 °C in the wells; HRP-anti-GST detection; both purified

B1: glutathione S-transferase (GST)-PEDF-fusion protein (protein, UniProt P97298 20-417)
chain: QNVPSSSEGSPVPDSTGEPVEEEDPFFKVPVNKLAAAVSNFGYDLYRLRSSASPTGNVLLSPLSVATALSALSLGAEHRTESVIHRALYYDLITNPDIHSTYKELLASVTAPEKNLKSASRIVFERKLRVKSSFVAPLEKSYGTRPRILTGNPRVDLQEINNWVQAQMKGKIARSTREMPSALSILLLGVAYFKGQWVTKFDSRKTTLQDFHLDEDRTVRVPMMSDPKAILRYGLDSDLNCKIAQLPLTGSMSIIFFLPLTVTQNLTMIEESLTSEFIHDIDRELKTIQAVLTVPKLKLSFEGELTKSLQDMKLQSLFESPDFSKITGKPVKLTQVEHRAAFEWNEEGAGSSPSPGLQPVRLTFPLDYHLNQPFLFVLRDTDTGALLFIGRILDPSST
  binding: binds
